Article PMC6662554

Tests used:
[1] = molecular target: T1, NeYFP-Delta-COP1 (rice) (UniProt Q0DJA0); test: split reporter; BiFC: CeYFP-SPL35 with NeYFP fusions in N. benthamiana leaf epidermis cells, eYFP signal 48 h after infiltration
T1 sequence: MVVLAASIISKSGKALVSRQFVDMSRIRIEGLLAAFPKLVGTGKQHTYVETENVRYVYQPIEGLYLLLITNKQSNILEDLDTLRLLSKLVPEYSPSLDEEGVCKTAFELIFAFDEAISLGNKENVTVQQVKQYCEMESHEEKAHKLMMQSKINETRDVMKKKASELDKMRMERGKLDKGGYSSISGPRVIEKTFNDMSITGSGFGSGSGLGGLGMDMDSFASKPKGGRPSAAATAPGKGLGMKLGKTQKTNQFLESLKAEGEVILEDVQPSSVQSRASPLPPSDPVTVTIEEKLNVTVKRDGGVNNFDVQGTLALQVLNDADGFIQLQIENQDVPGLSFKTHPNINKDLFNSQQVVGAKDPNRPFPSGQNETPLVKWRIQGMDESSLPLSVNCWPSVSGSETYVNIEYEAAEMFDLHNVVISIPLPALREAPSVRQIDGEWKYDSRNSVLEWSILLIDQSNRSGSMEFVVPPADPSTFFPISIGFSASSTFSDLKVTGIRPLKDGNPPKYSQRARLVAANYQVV

[2] = molecular target: T2, NeYFP-Delta-COP2 (rice) (UniProt Q0DJ99); test: as above
T2 sequence: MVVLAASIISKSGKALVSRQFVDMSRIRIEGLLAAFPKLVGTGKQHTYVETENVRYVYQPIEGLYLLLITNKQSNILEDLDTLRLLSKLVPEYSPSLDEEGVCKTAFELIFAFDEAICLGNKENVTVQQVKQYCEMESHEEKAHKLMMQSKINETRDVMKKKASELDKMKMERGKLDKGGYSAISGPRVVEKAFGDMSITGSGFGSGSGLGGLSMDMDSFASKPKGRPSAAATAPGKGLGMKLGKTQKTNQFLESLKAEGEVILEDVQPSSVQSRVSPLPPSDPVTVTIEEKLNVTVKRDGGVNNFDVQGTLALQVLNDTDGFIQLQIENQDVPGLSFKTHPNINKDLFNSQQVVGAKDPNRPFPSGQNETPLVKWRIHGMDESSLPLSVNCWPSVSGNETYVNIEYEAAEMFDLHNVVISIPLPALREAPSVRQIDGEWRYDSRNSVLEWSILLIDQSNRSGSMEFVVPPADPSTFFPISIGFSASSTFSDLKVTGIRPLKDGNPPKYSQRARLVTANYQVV

[3] = molecular target: T3, GST-Delta-COP2 (rice) (UniProt Q0DJ99); test: pull-down; GST fusion proteins immobilised on glutathione-sepharose beads (GST binding resin), incubated with purified MBP-SPL35; immunoblot with anti-MBP and anti-GST; both purified
T3 sequence: T2 sequence

[4] = molecular target: T4, GST-Delta-COP1 (rice) (UniProt Q0DJA0); test: as above
T4 sequence: T1 sequence

[5] = molecular target: T5, Delta-COP2 full-length, bait fusion in pGBKT7 (rice) (UniProt Q0DJ99); test: two-hybrid; SPL35 full-length and fragments as preys in pGADT7, ubiquitin, OsUBC5a, Delta-COP1 and Delta-COP2 as baits in pGBKT7; yeast AH109; SD/-His-Ade-Leu-Trp with 3 mM 3-AT, 30 °C
T5 sequence: T2 sequence

[6] = molecular target: T6, Delta-COP1 full-length, bait fusion in pGBKT7 (rice) (UniProt Q0DJA0); test: as above
T6 sequence: T1 sequence

[7] = molecular target: T7, CLUC-Delta-COP1 (rice) (UniProt Q0DJA0); test: split reporter; firefly LUC complementation imaging (LCI): NLUC-SPL35 with CLUC fusions in N. benthamiana leaf epidermis cells, 48 h post-infiltration
T7 sequence: T1 sequence

[8] = molecular target: T8, CLUC-Delta-COP2 (rice) (UniProt Q0DJ99); test: as above
T8 sequence: T2 sequence

Row | Substance | binding [5] | binding [6] | further results
1 | CeYFP-SPL35 (rice) |  |  | binding [1]: binds; binding [2]: binds
2 | MBP-SPL35 (rice) |  |  | binding [3]: binds; binding [4]: binds
3 | SPL35 full-length, prey (AD) fusion in pGADT7 (rice) | binds | binds | 
4 | SPL35 CUE domain, prey (AD) fusion in pGADT7 (rice) (domain or fragment) | binds | binds | 
5 | SPL35 N-terminal region lacking the CUE domain, prey (AD) fusion in pGADT7 (rice) (domain or fragment) | binds | binds | 
6 | NLUC-SPL35 (rice) |  |  | binding [7]: binds; binding [8]: binds

These are yes or no findings as the source states them, for the method shown. Binding calls can cover weak binding; strength is not graded here. For part of these data: Where a sequence is shown, tags or fusion partners need not be part of it. For part of these data: Binding seen in cells or lysates may run through a third protein.
